Measured values from patent US20260116971A1.
Results are given in words; binding and its absence hold for the method and conditions named. Some results given as binding are weak or reduced against the parent protein; the word gives no strength.

Biological target: cynomolgus (Cyno) monkey (Macaca fascicularis) Nectin-2 (cynomolgus monkey (Macaca fascicularis))
Assay: FACS titration (13.3 nM-0.02 nM) on CHO cells expressing Cyno Nectin-2

B1: anti-Nectin-2 monoclonal antibody clone 11 (antibody, V domains shown)
VH: EVQLQQSGTVLTRPGASVKMSCKASGYIFTSYWIHWVKQRPGQGLEWIGAVYPGNSDSNYNQKFKAKAKLTAVTSTSTAYMELSSLTSEDSAVYYCTKLVGTFDYWGQGTTLTVSS
VL: DIVMTQSQKFMSSSIGDRVSVTCKASQNVGINVVWYQQRAGQSPKTLIYSASYRYSGVPDRFTGSGSGTDFTLTISNVQSEDLAEYFCQQYNTNPFTFGSGTKLEIK
In the case of B1, the binding is reported as “binds”.
